From article PMC7064343 come the findings set out here.

Sequences of proteins named here, by UniProt entry; tags and fusion partners are left off. A change or cut given only in a name is not applied to a line headed by its entry.
UniProt Q38D74: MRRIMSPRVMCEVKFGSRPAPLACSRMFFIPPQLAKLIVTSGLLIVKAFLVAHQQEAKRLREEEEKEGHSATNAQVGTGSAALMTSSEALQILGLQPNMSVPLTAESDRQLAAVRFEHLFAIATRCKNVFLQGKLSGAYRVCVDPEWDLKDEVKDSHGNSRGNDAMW
UniProt Q57YN2: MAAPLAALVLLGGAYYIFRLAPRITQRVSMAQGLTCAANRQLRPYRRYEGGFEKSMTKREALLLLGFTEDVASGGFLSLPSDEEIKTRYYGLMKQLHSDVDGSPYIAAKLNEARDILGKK

The experiment addresses TbPam16-HA (C-terminally triple HA-tagged TbPam16) (Trypanosoma brucei) (UniProt Q38D74). The experiment in a line: affinity purification with mass spectrometry; SILAC-IP. Digitonin-extracted mitochondria-enriched pellets of uninduced and induced cells expressing ACAD-myc, TbPam16-HA or TbPam18-HA were subjected to CoIP. Three biological replicates with a label-switch; quantitative LC-MS.

Results are given in words; binding and its absence hold for the method and conditions named. In cells and extracts the contact can be indirect. Here binding means that the protein was enriched with, or labelled near, the bait; the list need not be complete.

As for “TbPam18 (endogenous) (from UniProt Q57YN2)”, the binding result is on record as “binds”.
